In patent EP0147194B1 (Hosobuchi, Yoshio, priority 1983, dated 1989):
Part of at least one peptide drawing is inferred or uncertain, most often the ends. No end group written: not given here.

Columns and labels:
[1] = system: acute focal cerebral ischemia; parameters: species or system cats; settings: in vivo; for prolonging survival (mortality as a function of time following the cerebral artery occlusions): ip
analgesic response = settings: cited from earlier work

Row | Compound | conditions of survival [1] | prolonging survival (mortality as a function of time following the cerebral artery occlusions) [1] | effect on narcotic analgesia in tolerant animals (analgesic response; morphine-tolerant animals / tolerant hosts) | effect on narcotic analgesia in naive animals (analgesic response; naive animals, analgesic response to morphine and β-endorphin / narcotic analgesics)
1 | YGGFLRRIRP-NH2 [dynorphin (1-10) amide] | of high quality and clinically quite significant | less impressive than for naloxone, naltrexone and dynorphin (1-13) | does potentiate the analgesic effect | does not antagonize narcotic analgesics
2 | CC[C@H](C)[C@H](NC(=O)[C@H](CCCNC(=N)N)NC(=O)[C@H](CCCNC(=N)N)NC(=O)[C@H](CC(C)C)NC(=O)[C@H](Cc1ccccc1)NC(=O)CNC(=O)CNC(=O)[C@@H](N)Cc1ccc(O)cc1)C(=O)N[C@@H](CCCNC(=N)N)C(=O)N1CCC[C@H]1C(=O)N[C@@H](CCCCN)C(=O)N[C@@H](CC(C)C)C(=O)N[C@@H](CCCCN)C(=O)O [Dynorphin (1-13)] | – | prolonged survival best of all the groups | – | –
